PubChem BioAssay AID1224830, NIAID, 2016

- Test: 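Regulators of TLR4 signalling towards TNF-alpha in macrophage-like cells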 (primary screen)
- Cell system: human THP-1 monocytic leukaemia cells, TNF dual-luciferase reporter clone, PMA-differentiated to macrophage-like cells
- Reagent: siRNA pool against human genes, 50 nM
- Timing: LPS for 4 h, given about 3 days after siRNA transfection
- Treatment: bacterial LPS (TLR4 ligand), 10 ng/ml
- Measured: 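Ratio of firefly to renilla light, scaled to the plate median and expressed as a robust z-score per replicate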
- Reading the numbers: TNF reporter robust z-score: higher = stronger TNF reporter response to LPS
- Call rule: 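Each well counts as active if its z-score is over 2.8 or under -1.5; controls are left without a call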
The deposit covers about 18,000 reagents; shown is a part drawn at random. Of all reagents, about 2,900 (16%) are marked active. 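Calls are made per well; low scores hint the gene aids the LPS response, high scores that it dampens it.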 Entries without a mark were called inactive. Repeated entries: four replicate wells of each siRNA pool.

| Target gene | TNF reporter robust z-score |
| --- | --- |
| AKAP10 | 0.44 |
| AKAP10 | -0.38 |
| AKAP10 | -0.1 |
| AKAP10 | 0.54 |
| SACK1G | 0.79 |
| SACK1G | 0.76 |
| SACK1G | 0.83 |
| SACK1G | -0.3 |
| OR10AG1 | -0.85 |
| OR10AG1 | -0.63 |
| OR10AG1 | -0.03 |
| OR10AG1 | 0.19 |
| SPOCK2 | -0.09 |
| SPOCK2 | 0.22 |
| SPOCK2 | 0.93 |
| SPOCK2 | 1.1 |
| FAM120AOS | -0.63 |
| FAM120AOS | 0.04 |
| FAM120AOS | -0.77 |
| FAM120AOS | -0.94 |
| FSTL5 | -0.94 |
| FSTL5 | -0.86 |
| FSTL5 | -0.08 |
| FSTL5 | -0.1 |
| MIDEAS | -1.81 (active) |
| MIDEAS | -1.35 |
| MIDEAS | -1.69 (active) |
| DPPA3 | -0.8 |
| DPPA3 | -1.07 |
| DPPA3 | -1.23 |
| DPPA3 | -0.42 |
| GJB5 | -1.38 |
| GJB5 | -0.51 |
| GJB5 | -2.01 (active) |
| GJB5 | -1 |
| BCL2L10 | -0.01 |
| BCL2L10 | 0.51 |
| BCL2L10 | 0.44 |
| BCL2L10 | 0.27 |
| ZNF19 | -1.51 (active) |
| ZNF19 | -1.45 |
| ZNF19 | -1.23 |
| ZNF19 | -1.49 |
| TBC1D1 | 0.83 |
| TBC1D1 | 1.99 |
| TBC1D1 | 1.61 |
| TBC1D1 | 1.91 |
| PRKCSH | 1.11 |
| PRKCSH | 0.93 |
| PRKCSH | 3.15 (active) |
| SKOR2 | -0.53 |
| SKOR2 | -0.64 |
| SKOR2 | -0.35 |
| SKOR2 | 1.09 |
| VSNL1 | -1.18 |
| VSNL1 | -0.71 |
| VSNL1 | -0.83 |
| VSNL1 | -1.2 |
| WFDC13 | -0.15 |
| WFDC13 | -0.22 |
| WFDC13 | 0.79 |
| WFDC13 | -0.02 |
| PHYH | 1.55 |
| PHYH | 2.23 |
| PHYH | 2.1 |
| PHYH | 3.61 (active) |
| CETN3 | -1.55 (active) |
| CETN3 | -1.57 (active) |
| CETN3 | -1.64 (active) |
| CETN3 | -1.45 |
| AGAP3 | 0.27 |
| AGAP3 | 1.46 |
| AGAP3 | 1.85 |
| AGAP3 | 0.38 |
| CEP112 | 0.35 |
| CEP112 | 1.15 |
| CEP112 | -0.33 |
| CEP112 | -0.14 |
| UBL7 | -1.39 |
| UBL7 | -0.57 |
| UBL7 | -1.15 |
| UBL7 | -1.17 |
| FOLH1B | -0.96 |
| FOLH1B | 0.89 |
| FOLH1B | 0.28 |
| FOLH1B | 0.39 |
| DEFB103A | -0.88 |
| DEFB103A | 0.59 |
| DEFB103A | 0.23 |
| DEFB103A | 0.42 |
| HDAC8 | 0.36 |
| HDAC8 | 0.27 |
| HDAC8 | 0.71 |
| HDAC8 | 0.08 |
| CDKL4 | -0.54 |
| CDKL4 | -0.49 |
| CDKL4 | -0.7 |
| CDKL4 | -0.09 |
| PADI2 | 0.55 |
| PADI2 | -0.47 |
| PADI2 | -0.48 |
| PADI2 | -0.38 |
| SLC30A4 | 0.07 |
| SLC30A4 | -0.72 |
| SLC30A4 | -0.46 |
| SLC30A4 | -0.67 |
| S100A9 | -1.09 |
| S100A9 | -0.22 |
| S100A9 | -0.35 |
| S100A9 | -0.57 |

5 entries from above, set out differently:
{"Target gene": "CETN3", "TNF reporter robust z-score": "-1.57 (active)"}
{"Target gene": "CETN3", "TNF reporter robust z-score": "-1.64 (active)"}
{"Target gene": "CETN3", "TNF reporter robust z-score": -1.45}
{"Target gene": "AGAP3", "TNF reporter robust z-score": 0.27}
{"Target gene": "AGAP3", "TNF reporter robust z-score": 1.46}
